# Test results taken from patent US20170367390A1, “USE OF ELLAGIC ACID DIHYDRATE IN FOOD PRODUCTS AND NUTRACEUTICALS” (HALO LIFE SCIENCE, LLC, priority 2014, published 2017).
# Some entries share one result that the patent states for a list of compounds.
# Experiment: Weight loss and blood glucose in female SWV mice with STZ induced diabetes, 30 days gavage
# Type: in vivo, mouse
# Details: STZ diabetic mice, fasted, entire period of the treatment
# Procedure: Weight loss and blood glucose in diabetes induced mice treated with ellagic acid was determined and weight loss and blood glucose in mice treated with ellagic acid dihydrate may be determined by the following procedures. Induction of Diabetes: Diabetes is induced in mice by intraperitoneal injection with Streptozotocin (STZ 40 mg/kg) daily for five days. The mice are considered hyperglycemic when the glucose level of each dam is above 200 mg/dL. The mice are fasted for 4 hours before STZ injection and glucose measurement. Treatment: The mice are treated daily for thirty days with ellagic acid or control in the form of a supplemental pill homogenized and suspended in 25% water solution of Cremophor EL. The mice are treated for one month via gavage using the human equivalent dose of 122.4 mg pill/kg of subject (40.6 mg ellagic acid/kg of the subject), the human equivalent does of 40.6 mg ellagic acid/kg of the subject using 98% pure ellagic acid, or control vehicle (25% water solution of Cremophor EL). The human equivalent dose is calculated as described in Example 8. Treatments would start two weeks after the last STZ injection in which hyperglycemia is confirmed in the diabetic mice. The mice would be weighed daily and glucose levels would be measured in fasted animals every five days.
smiles,measurement,value
O=c1oc2c(O)c(O)cc3c(=O)oc4c(O)c(O)cc1c4c23 [ellagic acid],glucose level,above 200 mg/dL
